Data as given in PubChem BioAssay AID1259282 (Sanger Institute, 2017).

- Assay: 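Kinases whose loss reduces viability on their own or with anchor drugs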 (primary screen)
- System: DIFI human colorectal cancer cell line
- Knock-down reagent: siRNA pool against human genes
- Treatment: anchor drug at a mild dose (BYL719 1 µM, cetuximab 5 µg/ml, trametinib 10 nM) or DMSO vehicle; exposure time not given
- Measured: 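Robust z-score and replicate-mean viability versus non-targeting pool without drug, plus a synergy score for each low-dose anchor drug (BYL719, cetuximab, trametinib)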
- Reading the numbers: robust z-score, knock-down alone: higher = more viable cells than typical knock-down; viability, knock-down alone: higher = more viable cells
- Hit rule: 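Essential when the robust z-score of the knock-down without drug falls below -3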
- Meaning of the calls: active = essential (knock-down alone, z below -3); inactive = not essential
In all, the deposit lists 794 reagents; shown is an unselected part. Of all reagents, 11 (1.4%) were called active. 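Calls flag knock-downs that lower viability without drug; drug synergy appears only in the synergy scores; exposure time not stated.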 No viability above 1 is reported: the scale is capped. Further read-outs or replicates are left out here. The record does not give: the amount of reagent, the time to read-out.

What is on record for PRKCE?
robust z-score, knock-down alone: -2.3; viability, knock-down alone (fraction of control): 0.563; call: inactive

What did the screen give for FES?
robust z-score, knock-down alone: -1.23; viability, knock-down alone (fraction of control): 0.718; call: inactive

How did the screen score ERBB3?
robust z-score, knock-down alone: -0.246; viability, knock-down alone (fraction of control): 0.86; call: inactive

What did the screen give for PEAK1?
robust z-score, knock-down alone: -1.81; viability, knock-down alone (fraction of control): 0.633; call: inactive

With MAST3, how do the results read?
robust z-score, knock-down alone: 0.462; viability, knock-down alone (fraction of control): 0.963; call: inactive

How did the screen score PIP5K1A?
robust z-score, knock-down alone: -0.3; viability, knock-down alone (fraction of control): 0.853; call: inactive

Which result is listed for CDK5R2?
robust z-score, knock-down alone: 0.715; viability, knock-down alone (fraction of control): 1; call: inactive

For PANK2, how do the results read?
robust z-score, knock-down alone: 0.702; viability, knock-down alone (fraction of control): 0.998; call: inactive

Which result is listed for BMPR1B?
robust z-score, knock-down alone: 0.715; viability, knock-down alone (fraction of control): 1; call: inactive

With PKMYT1, what was measured?
robust z-score, knock-down alone: 0.0485; viability, knock-down alone (fraction of control): 0.903; call: inactive

What is on record for CAMK2D?
robust z-score, knock-down alone: 0.715; viability, knock-down alone (fraction of control): 1; call: inactive

With ETNK2, what was measured?
robust z-score, knock-down alone: -1.45; viability, knock-down alone (fraction of control): 0.685; call: inactive

With TGFBR1, how do the results read?
robust z-score, knock-down alone: 0.368; viability, knock-down alone (fraction of control): 0.95; call: inactive

How did the screen score CHKB?
robust z-score, knock-down alone: 0.715; viability, knock-down alone (fraction of control): 1; call: inactive

For ROCK1, what does the deposit list?
robust z-score, knock-down alone: 0.715; viability, knock-down alone (fraction of control): 1; call: inactive

How did the screen score MAP3K4?
robust z-score, knock-down alone: 0.0848; viability, knock-down alone (fraction of control): 0.908; call: inactive

For ERBB2, how do the results read?
robust z-score, knock-down alone: 0.715; viability, knock-down alone (fraction of control): 1; call: inactive

With CDK11B, how do the results read?
robust z-score, knock-down alone: 0.652; viability, knock-down alone (fraction of control): 0.991; call: inactive

Which result is listed for IPPK?
robust z-score, knock-down alone: -1.92; viability, knock-down alone (fraction of control): 0.617; call: inactive

How did the screen score MINK1?
robust z-score, knock-down alone: 0.715; viability, knock-down alone (fraction of control): 1; call: inactive

With PRKCSH, how do the results read?
robust z-score, knock-down alone: 0.715; viability, knock-down alone (fraction of control): 1; call: inactive

With DDR2, what does the deposit list?
robust z-score, knock-down alone: 0.715; viability, knock-down alone (fraction of control): 1; call: inactive

How did the screen score GRK4?
robust z-score, knock-down alone: -2.05; viability, knock-down alone (fraction of control): 0.598; call: inactive

With PANK3, what does the deposit list?
robust z-score, knock-down alone: 0.715; viability, knock-down alone (fraction of control): 1; call: inactive

For PRPS1L1, what was measured?
robust z-score, knock-down alone: 0.209; viability, knock-down alone (fraction of control): 0.926; call: inactive

What did the screen give for EIF2AK3?
robust z-score, knock-down alone: 0.715; viability, knock-down alone (fraction of control): 1; call: inactive

Which result is listed for DYRK1A?
robust z-score, knock-down alone: 0.715; viability, knock-down alone (fraction of control): 1; call: inactive

With EPHA3, what does the deposit list?
robust z-score, knock-down alone: -1.97; viability, knock-down alone (fraction of control): 0.61; call: inactive

With PIK3R1, what was measured?
robust z-score, knock-down alone: 0.715; viability, knock-down alone (fraction of control): 1; call: inactive

For PINK1, how do the results read?
robust z-score, knock-down alone: -0.822; viability, knock-down alone (fraction of control): 0.777; call: inactive

What did the screen give for FN1?
robust z-score, knock-down alone: 0.715; viability, knock-down alone (fraction of control): 1; call: inactive

What is on record for MAP4K2?
robust z-score, knock-down alone: 0.233; viability, knock-down alone (fraction of control): 0.93; call: inactive

With STK38L, what does the deposit list?
robust z-score, knock-down alone: -0.539; viability, knock-down alone (fraction of control): 0.818; call: inactive

What did the screen give for STK32C?
robust z-score, knock-down alone: 0.715; viability, knock-down alone (fraction of control): 1; call: inactive

With CRIM1, how do the results read?
robust z-score, knock-down alone: -1.18; viability, knock-down alone (fraction of control): 0.725; call: inactive

With EFNA3, how do the results read?
robust z-score, knock-down alone: 0.282; viability, knock-down alone (fraction of control): 0.937; call: inactive

Individual results from the list:
Under “call”, PANK3 reads inactive
TGFBR1, robust z-score, knock-down alone → 0.368
For “viability, knock-down alone (fraction of control)”, CDK11B reads 0.991
For “viability, knock-down alone (fraction of control)”, EFNA3 reads 0.937
